# Among all 390,000 compounds or so, about 4,000 (1%) were called active. The shares of active, inactive and inconclusive entries below differ from those in the screen. The call rests on the fitted dose curve; in most records, active means well fitted inhibition curve with a large enough effect; inconclusive means small, poorly fitted or top-dose-only effect, or another doubt; inactive means no such curve, though single readings can be large or run the other way. Potencies beside an inconclusive call are fits to weak or partial responses and may not hold up.
# Sequences of proteins named here, by UniProt entry; tags and fusion partners are left off. A change or cut given only in a name is not applied to a line headed by its entry.
# UniProt Q9UNA4: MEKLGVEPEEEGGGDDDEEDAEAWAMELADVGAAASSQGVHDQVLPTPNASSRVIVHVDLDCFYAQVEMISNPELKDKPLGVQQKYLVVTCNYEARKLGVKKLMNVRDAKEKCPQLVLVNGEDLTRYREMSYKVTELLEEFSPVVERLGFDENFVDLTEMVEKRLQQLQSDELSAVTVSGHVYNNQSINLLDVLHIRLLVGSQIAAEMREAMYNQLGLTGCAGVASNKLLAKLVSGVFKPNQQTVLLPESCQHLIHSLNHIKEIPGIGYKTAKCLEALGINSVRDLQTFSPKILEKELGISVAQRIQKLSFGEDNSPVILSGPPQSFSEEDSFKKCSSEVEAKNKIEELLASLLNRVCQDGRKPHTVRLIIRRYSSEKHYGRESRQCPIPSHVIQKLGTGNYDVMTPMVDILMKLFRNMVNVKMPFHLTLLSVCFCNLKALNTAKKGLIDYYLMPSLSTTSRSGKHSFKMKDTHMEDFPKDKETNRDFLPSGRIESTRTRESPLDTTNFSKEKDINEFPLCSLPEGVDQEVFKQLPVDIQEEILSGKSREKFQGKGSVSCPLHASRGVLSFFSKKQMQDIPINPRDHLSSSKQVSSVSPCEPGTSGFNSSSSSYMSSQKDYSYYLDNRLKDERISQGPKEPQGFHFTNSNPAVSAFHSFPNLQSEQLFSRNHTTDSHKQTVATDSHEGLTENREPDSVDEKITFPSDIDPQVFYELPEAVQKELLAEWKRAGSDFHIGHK
# Biological target: DNA polymerase iota (Homo sapiens) (UniProt Q9UNA4)
# Test: qHTS for Inhibitors of Polymerase Iota
# Conditions: Pol iota fluorescent replication assay, 10 min; series mostly up to 115 µM
# Outline: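 Fluorescent replication assay read twice, at 0 min and 10 min after adding 50 nM (final) substrate. Enzyme (10 nM) and compounds were first incubated 15 min at room temperature; enzyme-free buffer wells were negative controls.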
# Potency means the concentration at half of the fitted maximal effect.
row,SMILES,Potency
1,O=C(Nc1cccc(C(F)(F)F)c1)/C(=C\c1ccco1)NC(=O)c1cccs1,inactive
2,O=S1(=O)C=C(Sc2nc3ccccc3s2)c2ccccc21,"inconclusive: 20 µM [inhibitor, partial curve, poor fit]"
3,CC1=NOC(=O)/C1=C\c1ccc(-c2ccc(Br)cc2)o1,"inconclusive: 12.6 µM [inhibitor, partial curve, poor fit]"
4,Cc1cc[n+](-c2ccccc2)c2ccccc12,inactive
5,COc1ccc(S(=O)(=O)N2CCC(n3cnc4cc(C(F)(F)F)ccc43)CC2)cc1,"inconclusive: 79.4 µM [inhibitor, partial curve, poor fit]"
6,O=C(Nc1ccc2c(c1)C(=O)NC2=O)c1ccc(Cl)s1,"inconclusive: 35.5 µM [inhibitor, full curve, poor fit]"
7,Nc1nc(=O)c2ccccc2s1,inactive
8,CC(C)Cc1oc(C(=O)O)cc1CN,"inconclusive: 17.8 µM [inhibitor, full curve, poor fit]"
9,CCOC(=O)C1CCN(C(=O)CN2C(=O)CSc3ccc(S(=O)(=O)N4CCOCC4)cc32)CC1,"inconclusive: 89.1 µM [inhibitor, single point]"
10,CN(C)c1ccc(/C=C/c2ccc3ccccc3n2)cc1,inactive
11,S=c1[nH]nc(-c2cccc(Cl)c2)n1/N=C/c1ccco1,"inconclusive: 31.6 µM [inhibitor, single point]"
12,CC1(C)[C@@H](O)CC[C@]2(C)C3C(O)C=C4[C@H]5C[C@@](C)(CO)CC[C@]5(C)CC[C@]4(C)[C@]3(C)CC[C@@H]12 (stereo partly specified),inactive
13,CC(C)C(=O)Nc1c(-c2ccc(Cl)cc2)c(=O)c2ccccc2n1C,"inconclusive: 3.16 µM [inhibitor, partial curve, poor fit]"
14,CC(C)N1CCN(Cc2cccc(-n3cccn3)c2)CC1CCO (stereo unspecified),inactive
15,COc1ccc(C(CC(=O)N2CCCC(C)C2)c2c(OC)cc(OC)c3ccc(=O)oc23)cc1 (stereo unspecified),"inconclusive: 89.1 µM [inhibitor, single point]"
16,Cc1noc(/C=C/c2ccc(-c3ccccc3Cl)o2)c1[N+](=O)[O-],"inconclusive: 15.8 µM [inhibitor, partial curve, poor fit]"
17,CC1CCN(S(=O)(=O)c2ccc(F)c(C(=O)O)c2)CC1,"inconclusive: 14.1 µM [inhibitor, partial curve]"
18,CCC(CC)C(=O)Nc1cccc(C(=O)Nc2ccc(S(=O)(=O)Nc3ccc(C)cc3)cc2)c1,inactive
19,CCOc1cc(N2CCOCC2)c(OCC)cc1NC(=O)COC(=O)c1ccc([N+](=O)[O-])o1,inactive
20,Cc1c(C(=O)NCc2ccco2)oc2c(F)cccc12,"inconclusive: 25.1 µM [inhibitor, full curve, poor fit]"
21,O=C(Nc1ccccc1)/C(=C/c1cccnc1)NC(=O)c1ccccc1,"inconclusive: 89.1 µM [inhibitor, single point]"
22,COc1cccc(-c2nc(NCCN3CCOCC3)c3ccccc3n2)c1O,"inconclusive: 14.1 µM [inhibitor, full curve, poor fit]"

# Sorted by SMILES length (low to high): part of the list above.
row,SMILES,Potency
7,Nc1nc(=O)c2ccccc2s1,inactive
4,Cc1cc[n+](-c2ccccc2)c2ccccc12,inactive
11,S=c1[nH]nc(-c2cccc(Cl)c2)n1/N=C/c1ccco1,"inconclusive: 31.6 µM [inhibitor, single point]"
5,COc1ccc(S(=O)(=O)N2CCC(n3cnc4cc(C(F)(F)F)ccc43)CC2)cc1,"inconclusive: 79.4 µM [inhibitor, partial curve, poor fit]"

# Fetched one by one from the entries so far, two records:
row,SMILES,Potency
13,CC(C)C(=O)Nc1c(-c2ccc(Cl)cc2)c(=O)c2ccccc2n1C,"inconclusive: 3.16 µM [inhibitor, partial curve, poor fit]"
5,COc1ccc(S(=O)(=O)N2CCC(n3cnc4cc(C(F)(F)F)ccc43)CC2)cc1,"inconclusive: 79.4 µM [inhibitor, partial curve, poor fit]"

# Later entries.

row,SMILES,Potency
1,COc1ccc(OC)c(-n2nnnc2SCC(=O)Nc2ccc(C(=O)N3CCCCC3)cc2)c1,"inconclusive: 56.2 µM [inhibitor, partial curve]"
2,CN(C)C(=O)[C@H]1C[C@H]1[C@@H](O)[C@H](CO)NC(=O)[C@H](Cc1ccccc1)NC(=O)OC(C)(C)C,inactive
3,COc1ccccc1/C=C/C(=O)NCC(=O)N/N=C/c1ccc(C(=O)O)cc1,"inconclusive: 79.4 µM [inhibitor, partial curve, poor fit]"
4,CC[C@]12c3[nH]c4cc(-c5ccco5)ccc4c3CCN1C(=O)[C@@H](CC(=O)NCCc1ccccn1)C[C@@H]2C(=O)N1CCN(C(=O)C2CC2)CC1,"inconclusive: 50.1 µM [inhibitor, single point]"
5,COc1ccc(-c2csc(Nc3ccc(S(N)(=O)=O)cc3)n2)cc1,"inconclusive: 5.01 µM [inhibitor, full curve, poor fit]"
6,O=C1NNC(c2ccccc2)=N/C1=C\c1ccccc1Cl,"inconclusive: 12.6 µM [inhibitor, partial curve]"
7,Cc1c(C(=O)OCC2CCCCC2)[nH]c2c1C(=O)CC(c1ccc(F)cc1)C2 (stereo unspecified),"inconclusive: 2.24 µM [inhibitor, full curve, poor fit]"
8,COc1cccc(C(=O)NCCC2=CCCCC2)c1OC,"inconclusive: 28.2 µM [inhibitor, partial curve]"
9,O=C(CSc1ccc(Cl)cc1)NC(=O)c1ccccc1,"inconclusive: 15.8 µM [inhibitor, partial curve, poor fit]"
10,CCCCn1c(=N)c(S(=O)(=O)c2ccc(Cl)cc2)cc2c(=O)n3cccc(C)c3nc21,inactive
11,CCc1ccc(NC(=O)CSc2nc3c(sc4ccccc43)c(=O)n2CCCOC)cc1,inactive
12,Cc1cc(C)cc(OCC(=O)Nc2nc(-c3cccnc3)cs2)c1,"inconclusive: 50.1 µM [inhibitor, partial curve, poor fit]"
13,COc1ccc(N(CC(=O)N/N=C/c2cccs2)S(=O)(=O)c2ccc(OC)c(OC)c2)cc1,"inconclusive: 89.1 µM [inhibitor, single point]"
14,COc1ccc(Nc2nc(NCC3CCCO3)c3ccccc3n2)c(OC)c1 (stereo unspecified),"inconclusive: 14.1 µM [inhibitor, partial curve, poor fit]"
15,CCOc1cc2[nH]c(=S)n(C3CCN(Cc4ccccc4)CC3)c(=O)c2cc1OCC,"inconclusive: 89.1 µM [inhibitor, partial curve, poor fit]"
16,Cc1ccc(OCc2nc(-c3ccc(-n4cccc4)cc3)no2)cc1C,"inconclusive: 89.1 µM [inhibitor, single point]"
17,CCOC(=O)c1c(NS(=O)(=O)c2cccc(OC)c2)sc2c1CCC2,"inconclusive: 28.2 µM [inhibitor, single point]"
18,CCCOc1ccc(C(=O)N(Cc2ccco2)Cc2ccco2)cc1,inactive
19,Cc1cccc(NC(=O)c2cccc(NC3=NC4CS(=O)(=O)CC4S3)c2)c1 (stereo unspecified),"inconclusive: 56.2 µM [inhibitor, single point]"
20,CC1=NN(c2ccccc2)C(=O)C1C=Nc1ccccc1O (stereo unspecified),inactive
21,N=c1sccn1CC(=O)NCCc1ccc(Cl)cc1,"inconclusive: 25.1 µM [inhibitor, single point]"
22,COc1cccc(/C=C/c2nc(C#N)c(N3CCN(C)CC3)o2)c1,"inconclusive: 89.1 µM [inhibitor, single point]"

row,SMILES,Potency
1,CCOc1ccccc1CNC(=O)C1Cc2cc(S(=O)(=O)N3CCCCC3)ccc2N1C(C)=O (stereo unspecified),"inconclusive: 100 µM [inhibitor, partial curve, poor fit]"
2,CC1Cn2c(C(=O)NCc3ccccc3Cl)cc3cccc(c32)S1 (stereo unspecified),inactive
3,COc1cccc(CN2CCN(Cc3cc(OC)c(OC)cc3[N+](=O)[O-])CC2)c1,"inconclusive: 22.4 µM [inhibitor, partial curve]"
4,O=C(NCCO)c1ccc2nc(-c3ccco3)c(-c3ccco3)nc2c1,active: 2.51 µM
5,O=C(N/N=C/c1ccoc1)c1ccccc1O,"inconclusive: 56.2 µM [inhibitor, partial curve, poor fit]"
6,CCC1(C)NC(=O)N(CC(=O)Nc2cc(C)on2)C1=O (stereo unspecified),"inconclusive: 1 µM [inhibitor, full curve, poor fit]"
7,Cc1cccc(NC(=O)c2cc3c(=O)n(Cc4cccnc4)ccc3nc2C)c1,inactive
8,COc1ccccc1N1CCN(C(=O)Oc2ccccc2)CC1,"inconclusive: 89.1 µM [inhibitor, partial curve, poor fit]"
9,O=C(COC(=O)CNC(=O)c1ccccc1)Nc1ccc(Cl)cn1,inactive
10,Cc1ccc(-c2nc3ncccc3o2)cc1NC(=O)c1sc2ccccc2c1Cl,"inconclusive: 100 µM [inhibitor, partial curve, poor fit]"
11,COc1ccc(CCNC(=O)C(=O)NCC(c2cccs2)S(=O)(=O)c2ccc(F)cc2)cc1 (stereo unspecified),inactive
12,COc1ccc(-c2nn(-c3ccccc3)cc2C(=O)Nc2cccc(C(=O)O)c2)cc1[N+](=O)[O-],inactive
13,CC(NS(=O)(=O)c1ccccc1)C(=O)NC1CCCC1 (stereo unspecified),inactive
14,COC(=O)c1ccccc1-c1ccc(/C=N/NC(N)=O)o1,inactive
15,COCCn1nnnc1C(c1ccccc1OC)N1CCN(c2ccccc2)CC1 (stereo unspecified),"inconclusive: 8.91 µM [inhibitor, full curve, poor fit]"
16,COc1ccc(-c2nc(CSCC(=O)NCc3ccccc3Cl)c(C)o2)cc1OC,inactive
17,Cc1ccc(-c2cn(-c3ccccc3)c3[n+]2CCCS3)cc1,"inconclusive: 39.8 µM [inhibitor, full curve, poor fit]"
18,CCOC(=O)C(CC)Sc1nc2c(c(=O)[nH]c(=O)n2C)n1C/C=C(/C)Cl (stereo unspecified),"inconclusive: 100 µM [inhibitor, single point]"
19,O=S1(=O)Nc2c(cc(Cl)c3ccc(Cl)nc23)-c2ccccc21,"inconclusive: 56.2 µM [inhibitor, partial curve, poor fit]"
20,Cc1cc(C)c(Cn2c(=O)n(CCCC(=O)NCc3ccc4c(c3)OCO4)c(=O)c3sccc32)c(C)c1,inactive
21,Cn1c(=O)c2c(-c3ccc(Cl)cc3)n(CCc3ccccc3)cc2n(C)c1=O,"inconclusive: 44.7 µM [inhibitor, single point]"
22,Cc1ccccc1/C=C/C(=O)c1ccc([N+](=O)[O-])o1,"inconclusive: 22.4 µM [inhibitor, partial curve, poor fit]"

# Source: PubChem BioAssay AID588590 (National Center for Advancing Translational Sciences (NCATS), 2011)
